Results are given in words; binding and its absence hold for the method and conditions named. In cells and extracts the contact can be indirect. Some results given as binding are weak or reduced against the parent protein; the word gives no strength. Where a sequence is shown, tags or fusion partners need not be part of it.
Experiments:
Assay in all cases: FRET or BRET; Fast Relaxation Imaging (FReI) in living HeLa cells: IR-laser temperature jumps of 2.2°C at intervals of 50 s from 23.0 to 58.2°C; donor (AcGFP1) to acceptor (mCherry) ratio D/A averaged over the cytoplasm; a decrease of D/A read as intermolecular FRET
[1] = target: APSK37 C43Y (APS kinase domain of human PAPSS2, Δ37, folding sensor with AcGFP1 and mCherry) (human) (UniProt O95340)
[2] = target: APSK37 T48R (APS kinase domain of human PAPSS2, Δ37, folding sensor with AcGFP1 and mCherry) (human) (UniProt O95340)
[3] = target: APSK37 L76Q (APS kinase domain of human PAPSS2, Δ37, folding sensor with AcGFP1 and mCherry) (human) (UniProt O95340)

B1: APSK37 C43Y (APS kinase domain of human PAPSS2, Δ37, folding sensor with AcGFP1 and mCherry) (domain or fragment, UniProt O95340 38-220)
chain: GGFRGYTVWLTGLSGAGKTTISFALEEYLVSHAIPCYSLDGDNVRHGLNRNLGFSPGDREENIRRIAEVAKLFADAGLVCITSFISPFAKDRENARKIHESAGLPFFEIFVDAPLNICESRDVKGLYKRARAGEIKGFTGIDSDYEKPETPERVLKTNLSTVSDCVHQVVELLQEQNIVPYTI
For B1, the binding [1] was “binds”.

B2: APSK37 T48R (APS kinase domain of human PAPSS2, Δ37, folding sensor with AcGFP1 and mCherry) (domain or fragment, UniProt O95340 38-220)
chain: GGFRGCTVWLRGLSGAGKTTISFALEEYLVSHAIPCYSLDGDNVRHGLNRNLGFSPGDREENIRRIAEVAKLFADAGLVCITSFISPFAKDRENARKIHESAGLPFFEIFVDAPLNICESRDVKGLYKRARAGEIKGFTGIDSDYEKPETPERVLKTNLSTVSDCVHQVVELLQEQNIVPYTI
With B2 the binding [2] was “binds”.

B3: APSK37 L76Q (APS kinase domain of human PAPSS2, Δ37, folding sensor with AcGFP1 and mCherry) (domain or fragment, UniProt O95340 38-220)
chain: GGFRGCTVWLTGLSGAGKTTISFALEEYLVSHAIPCYSQDGDNVRHGLNRNLGFSPGDREENIRRIAEVAKLFADAGLVCITSFISPFAKDRENARKIHESAGLPFFEIFVDAPLNICESRDVKGLYKRARAGEIKGFTGIDSDYEKPETPERVLKTNLSTVSDCVHQVVELLQEQNIVPYTI
With B3 the binding [3] was “binds”.

— article PMC9024126
